Data published in PubChem BioAssay AID901 (National Center for Advancing Translational Sciences (NCATS), 2007).
This is one part of the list. The main result of the screen is listed elsewhere. These columns were measured beside it and carry no call. Most of these compounds were active or inconclusive in the main read-out, so they are no random draw. Words in brackets tell the shape of the fitted curve; partial curves, single points and poor fits give uncertain potencies.

Test: qHTS Assay for Identifying the Cell-Membrane Permeable IMPase Inhibitors
Details: CHO-M1 cells, IP1 accumulation, HTRF TR-FRET ratio; measured here: donor channel 620 nm AC50
In the case of `COc1ccc(S(=O)(=O)N2Cc3ccccc3CC2C(=O)Nc2cccc(C)c2)cc1OC` (stereo not drawn), the AC50 is reported as 0.282 µM [falling, full curve].
For `Cc1ccc(NC2SC(=O)N(CC(=O)O)C2=O)cc1` (stereo not drawn), the AC50 was 0.501 µM [falling, full curve, poor fit].
In the case of `COc1ccc(-n2nnnc2SCC(=O)c2ccc3c(c2)OCCO3)cc1`, the AC50 is reported as 0.00501 µM [falling, full curve, poor fit].
For `O=C(O)C1CC=CCC1C(=O)Nc1cccc(Cl)c1Cl` (stereo not drawn), the AC50 was 1.26 µM [rising, partial curve, poor fit].
For `Nc1c(S(=O)(=O)c2cccs2)c2nc3ccccc3nc2n1Cc1cccs1`, the AC50 was 31.6 µM [rising, single point].
In the case of `O=C(Nc1ccc2c(c1)OCO2)C1CCN(c2ccc(S(=O)(=O)N3CCOCC3)cc2)CC1`, the AC50 is reported as 6.31 µM [falling, single point].
With `Cc1cc(NC(=O)C2C3C(=O)N(Cc4ccc(Cl)cc4)C(C(=O)NCc4ccccc4)C34C=CC2(C)O4)no1` (stereo not drawn) the AC50 was 3.98 µM [falling, full curve].
In the case of `CC(=O)Nc1c(C(=O)c2ccccc2)oc2ccccc12`, the AC50 is reported as 0.1 µM [falling, full curve, poor fit].
For `CCOC(=O)CCC(=O)N1CCNC(=O)C1`, the AC50 was 0.0891 µM [falling, full curve, poor fit].
In the case of `O=C(Nc1cnn(Cc2ccc(Cl)c(Cl)c2)c1)C12CC3CC(CC(C3)C1)C2`, the AC50 is reported as 0.794 µM [falling, full curve, poor fit].
In the case of `O=C(c1ccc([N+](=O)[O-])cc1)N(C1=NCCCCS1)c1ccccc1`, the AC50 is reported as 6.31 µM [falling, single point].
In the case of `O=C(N1CCOCC1)N1CCCN(C(=O)N2CCOCC2)CC1`, the AC50 is reported as 0.0251 µM [rising, full curve].
With `COc1cc([N+](=O)[O-])ccc1NC(=O)C[n+]1cccc(C)c1` the AC50 was 0.501 µM [falling, full curve, poor fit].
In the case of `CN(C)c1ccc(/C=C/c2ccc3ccccc3[n+]2C)cc1`, the AC50 is reported as 15.8 µM [falling, partial curve].
With `CC(C)=CCCC1=CCC(/C(C)=N/NC(N)=O)CC1` (stereo not drawn) the AC50 was 3.98 µM [rising, full curve, poor fit].
In the case of `Cc1ccc(C(=O)C2=C(O)C(=O)N(c3ncccn3)C2c2cccc(Cl)c2)o1` (stereo not drawn), the AC50 is reported as 10 µM [rising, partial curve].
For `Cc1nnsc1C(=O)Nc1cccc(Cl)c1Cl`, the AC50 was 0.2 µM [rising, single point].
For `COCCN(CCOC)C(=O)c1cc2c(=O)n3ccccc3nc2s1`, the AC50 was 5.01 µM [rising, single point].
For `CC(=O)Nc1ccc(S(=O)(=O)N=S(C)C)cc1`, the AC50 was 0.316 µM [falling, partial curve].
With `CCc1cc2cc3c(cc2nc1SCC(=O)Nc1nccs1)OCO3` the AC50 was 25.1 µM [rising, partial curve].
With `Cc1ccc(Cn2c(=O)n(Cc3ccco3)c(=O)c3ccccc32)cc1` the AC50 was 5.01 µM [falling, single point].
In the case of `CCOc1ccc(C(=O)N2CCC(C(=O)c3ccc4c(c3)OCCO4)CC2)cc1`, the AC50 is reported as 35.5 µM [rising, single point].
For `CCCc1nnc(NC(=O)CCCC(=O)O)s1`, the AC50 was 3.16 µM [rising, partial curve].
In the case of `Cc1ccc(NC(=O)C2CC(=O)NC(N3CCc4ccccc43)=N2)cc1` (stereo not drawn), the AC50 is reported as 0.00501 µM [falling, full curve, poor fit].
With `CCn1ccc2cc(OC)ccc2c1=S` the AC50 was 15.8 µM [rising, single point].
In the case of `Cc1c(CCC(=O)O)c(=O)oc2cc3occ(-c4ccc(F)cc4)c3cc12`, the AC50 is reported as 2.82 µM [falling, single point].
In the case of `COc1cccc(C2C(C(=O)c3cc4ccccc4o3)=C(O)C(=O)N2c2cc(C)on2)c1OC` (stereo not drawn), the AC50 is reported as 12.6 µM [rising, partial curve].
In the case of `O=C1CCC(=O)N1CC(=O)N1c2ccccc2Sc2ccccc21`, the AC50 is reported as 0.126 µM [falling, full curve, poor fit].
With `Cc1ccc(C(=O)Nc2ccc3c(c2)CCC3)o1` the AC50 was 11.2 µM [falling, partial curve, poor fit].
With `C=CCN1C2CCCC1CC(NC(=O)Nc1cccc(C(C)=O)c1)C2` (stereo not drawn) the AC50 was 31.6 µM [falling, single point].
With `CC(=O)c1ccccc1OCCCN1CCCCC1` the AC50 was 0.251 µM [rising, single point].
In the case of `COc1cc2c(cc1OC)-c1cc(OCCN3CCOCC3)nc(=O)n1CC2`, the AC50 is reported as 3.98 µM [rising, single point].
For `COc1cc(/C=N/NC(=O)c2ccc(=O)[nH]n2)ccc1O`, the AC50 was 14.1 µM [falling, partial curve].
With `CC(C)CNC(=O)NC(=O)COc1c(F)c(F)cc(F)c1F` the AC50 was 3.16 µM [rising, full curve].
For `O=C(COc1ccccc1)Nc1ccccc1N1CCN(c2ccc(F)cc2)CC1`, the AC50 was 5.01 µM [falling, single point].
For `O=C(NCCCN1CCOCC1)c1ccc(CNS(=O)(=O)c2ccc(F)cc2)cc1`, the AC50 was 12.6 µM [falling, partial curve, poor fit].
With `Cn1c(=O)c(=O)n(C)c2cc(S(=O)(=O)CCC(=O)N3CCOCC3)ccc21` the AC50 was 2.82 µM [falling, partial curve].
In the case of `COc1cccc(Nc2nnc(SCC(=O)N(CC(C)C)CC(C)C)s2)c1`, the AC50 is reported as 6.31 µM [falling, single point].
For `COc1cc(-c2nc(-c3ccncc3)no2)cc(OC)c1OC`, the AC50 was 31.6 µM [rising, single point].
With `Cc1ccc2nc(C(O)C(O)c3nc4ccc(C)cc4[nH]3)[nH]c2c1` (stereo not drawn) the AC50 was 3.16 µM [falling, single point].
In the case of `Cc1nn(CC(O)Cn2c3c(c4ccccc42)CCN(C)C3=O)c(C)c1Br` (stereo not drawn), the AC50 is reported as 0.0282 µM [falling, full curve, poor fit].
With `Cc1cc(NC(=O)c2ccccc2Cl)c(C(C)C)cc1O` the AC50 was 6.31 µM [rising, single point].
For `CC(=O)c1ccc2cccc3c2c1N=CN3C`, the AC50 was 20 µM [falling, partial curve, poor fit].
In the case of `COC(=O)c1ccccc1NC(=O)COc1ccc(S(=O)(=O)N2CCCC2)cc1C`, the AC50 is reported as 31.6 µM [rising, single point].
In the case of `CCOc1nc(C)ccc1-c1noc(-c2ccncc2)n1`, the AC50 is reported as 0.501 µM [falling, full curve].
In the case of `CCOC(=O)c1c2n(c3ccc(O)cc13)CCC2`, the AC50 is reported as 11.2 µM [falling, single point].
For `Cc1ccc(N/C=C/C(=O)c2sc(-c3ccccc3)nc2C)cc1`, the AC50 was 0.0316 µM [rising, full curve, poor fit].
With `CCOc1cccc2cc(C(=O)Nc3cc(C)on3)c(=O)oc12` the AC50 was 10 µM [rising, partial curve].
In the case of `O=C(COc1ccc(Br)cc1)Nc1ccc(C(=O)OC2CCCCC2)cc1`, the AC50 is reported as 35.5 µM [rising, single point].
For `COc1cc(C2NC(=O)NC(C)=C2C(=O)Nc2cccc(C)c2C)cc(OC)c1OC` (stereo not drawn), the AC50 was 1.58 µM [falling, full curve].
In the case of `CCCCOc1nc2ccccc2nc1C(C#N)C(=O)NC1CCCCC1` (stereo not drawn), the AC50 is reported as 2.82 µM [falling, partial curve, poor fit].
For `O=C1c2ccccc2C(=O)c2c1ccc(C(=O)N1CCCCC1)c2NCCO`, the AC50 was 7.94 µM [falling, partial curve].
With `CC#CCOC(=O)c1c(C)nc2sc3c(c2c1N)CC[C@@H](O)C3` the AC50 was 31.6 µM [rising, single point].
For `CCOc1cccc(C2c3c(oc4ccc(F)cc4c3=O)C(=O)N2CCOC)c1` (stereo not drawn), the AC50 was 5.62 µM [falling, single point].
In the case of `COCCn1c(-c2ccc(-c3ccccc3Cl)o2)nc2c1c(=O)[nH]c(=O)n2CC(C)C`, the AC50 is reported as 3.98 µM [rising, full curve].
For `COCC(=O)Nc1c(C(=O)Nc2cccc(OC)c2)oc2ccccc12`, the AC50 was 31.6 µM [falling, single point].
In the case of `COc1ccccc1OCCCCNCCO`, the AC50 is reported as 0.0141 µM [rising, full curve, poor fit].
In the case of `O=C(NCc1ccc(Cl)cc1)c1cc2c(nc3sccn32)s1`, the AC50 is reported as 25.1 µM [rising, single point].
For `CCCOc1ccccc1C1CC(=O)NC2=C1C(=O)CCC2` (stereo not drawn), the AC50 was 2.51 µM [falling, full curve, poor fit].
In the case of `O=C(O)c1ccc(OC2CSC2)cc1`, the AC50 is reported as 0.0501 µM [falling, partial curve, poor fit].
For `CC(=O)c1c(C)nn(C(C)CC(=O)O)c1C` (stereo not drawn), the AC50 was 0.1 µM [falling, single point].
In the case of `CC(C)C(NS(=O)(=O)c1cccs1)C(=O)NCc1ccc2c(c1)OCO2` (stereo not drawn), the AC50 is reported as 35.5 µM [rising, single point].
With `O=C1CC(c2cccc(O)c2)c2cc3c(cc2N1)OCO3` (stereo not drawn) the AC50 was 35.5 µM [falling, single point].
In the case of `CC(C)OC(=O)c1c(NC(=O)COc2cccc(Br)c2)sc2c1CCCC2`, the AC50 is reported as 3.55 µM [rising, partial curve].
With `Cc1ccc(NC(=O)c2c(-c3c(F)cccc3Cl)noc2C)cc1F` the AC50 was 20 µM [rising, single point].
For `CCCn1c(NC(=O)c2ccc(Br)cc2)nc2ccccc21`, the AC50 was 31.6 µM [rising, single point].
For `COc1c(C(=O)Nc2c(C)n(C)n(-c3ccccc3)c2=O)ccc2ccccc12`, the AC50 was 15.8 µM [rising, single point].
With `O=C(CN1C(=O)CCC1=O)NCC12CC3CC(CC(C3)C1)C2` the AC50 was 0.447 µM [rising, full curve, poor fit].
